From the supplement of paper PMC10849652
This is one part of the list. Residues, ends and D or L forms follow the SMILES beside them. *: point of attachment. Cbz = O=C(OCc1ccccc1)*

Sequences of proteins named here, by UniProt entry; tags and fusion partners are left off. A change or cut given only in a name is not applied to a line headed by its entry.
UniProt Q9NZJ7, whole entry, looked up: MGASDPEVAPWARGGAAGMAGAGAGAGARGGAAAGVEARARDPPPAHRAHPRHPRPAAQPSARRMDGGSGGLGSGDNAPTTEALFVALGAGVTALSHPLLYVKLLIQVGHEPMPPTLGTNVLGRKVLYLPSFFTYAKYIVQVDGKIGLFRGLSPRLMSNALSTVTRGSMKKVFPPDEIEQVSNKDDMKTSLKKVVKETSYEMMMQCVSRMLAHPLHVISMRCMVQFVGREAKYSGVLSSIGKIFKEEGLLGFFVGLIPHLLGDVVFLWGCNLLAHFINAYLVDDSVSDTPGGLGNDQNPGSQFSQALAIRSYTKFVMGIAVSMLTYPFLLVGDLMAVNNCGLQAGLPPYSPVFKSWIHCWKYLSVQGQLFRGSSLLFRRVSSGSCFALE
UniProt P60660, whole entry, looked up: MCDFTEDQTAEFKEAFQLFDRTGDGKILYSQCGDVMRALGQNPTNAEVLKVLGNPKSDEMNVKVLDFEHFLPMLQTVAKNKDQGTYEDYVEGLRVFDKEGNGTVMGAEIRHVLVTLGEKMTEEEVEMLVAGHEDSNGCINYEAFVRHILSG
UniProt P42285: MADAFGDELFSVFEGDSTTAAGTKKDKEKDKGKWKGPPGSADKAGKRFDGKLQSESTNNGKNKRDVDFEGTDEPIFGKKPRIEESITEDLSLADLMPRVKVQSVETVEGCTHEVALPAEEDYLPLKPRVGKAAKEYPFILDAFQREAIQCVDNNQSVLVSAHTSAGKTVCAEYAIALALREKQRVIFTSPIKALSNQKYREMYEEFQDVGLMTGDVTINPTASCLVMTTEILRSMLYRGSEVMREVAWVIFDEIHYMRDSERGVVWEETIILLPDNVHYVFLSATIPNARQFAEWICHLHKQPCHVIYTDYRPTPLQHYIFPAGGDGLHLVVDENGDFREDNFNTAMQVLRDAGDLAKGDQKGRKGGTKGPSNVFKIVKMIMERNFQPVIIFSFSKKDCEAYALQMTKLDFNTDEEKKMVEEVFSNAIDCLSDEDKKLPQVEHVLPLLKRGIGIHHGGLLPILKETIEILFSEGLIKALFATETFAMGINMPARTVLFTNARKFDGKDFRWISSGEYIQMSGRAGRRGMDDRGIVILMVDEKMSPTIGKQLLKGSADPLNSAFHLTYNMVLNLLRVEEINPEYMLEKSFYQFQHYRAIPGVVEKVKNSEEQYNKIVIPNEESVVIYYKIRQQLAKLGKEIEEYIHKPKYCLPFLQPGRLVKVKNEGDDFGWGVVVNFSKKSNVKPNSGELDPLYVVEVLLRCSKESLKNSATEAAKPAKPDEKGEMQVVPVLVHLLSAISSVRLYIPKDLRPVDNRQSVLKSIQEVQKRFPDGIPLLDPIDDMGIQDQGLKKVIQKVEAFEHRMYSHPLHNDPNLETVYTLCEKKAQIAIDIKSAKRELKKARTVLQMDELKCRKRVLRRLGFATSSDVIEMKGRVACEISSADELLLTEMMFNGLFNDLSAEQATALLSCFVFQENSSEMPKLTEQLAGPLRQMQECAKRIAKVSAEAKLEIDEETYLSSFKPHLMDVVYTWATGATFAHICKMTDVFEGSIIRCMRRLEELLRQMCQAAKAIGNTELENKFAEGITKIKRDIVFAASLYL
UniProt Q9UBK8: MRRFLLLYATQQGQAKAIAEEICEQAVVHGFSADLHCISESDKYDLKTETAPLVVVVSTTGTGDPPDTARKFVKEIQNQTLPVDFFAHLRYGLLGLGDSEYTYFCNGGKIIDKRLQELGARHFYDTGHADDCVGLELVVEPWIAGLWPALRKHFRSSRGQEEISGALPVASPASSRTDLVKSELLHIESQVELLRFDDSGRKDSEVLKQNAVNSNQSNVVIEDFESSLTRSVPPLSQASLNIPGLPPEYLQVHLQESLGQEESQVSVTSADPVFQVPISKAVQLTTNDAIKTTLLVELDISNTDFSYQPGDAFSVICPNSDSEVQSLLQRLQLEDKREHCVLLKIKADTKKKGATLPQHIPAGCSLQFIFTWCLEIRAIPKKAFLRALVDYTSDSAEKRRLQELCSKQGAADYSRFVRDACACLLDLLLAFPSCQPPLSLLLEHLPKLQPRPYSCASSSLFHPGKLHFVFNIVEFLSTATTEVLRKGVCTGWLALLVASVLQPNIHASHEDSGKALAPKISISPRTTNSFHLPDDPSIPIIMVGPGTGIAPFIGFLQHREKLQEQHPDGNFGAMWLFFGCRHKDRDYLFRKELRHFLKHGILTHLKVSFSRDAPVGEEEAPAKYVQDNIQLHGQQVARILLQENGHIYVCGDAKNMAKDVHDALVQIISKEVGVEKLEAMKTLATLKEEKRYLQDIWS
UniProt Q96QG7: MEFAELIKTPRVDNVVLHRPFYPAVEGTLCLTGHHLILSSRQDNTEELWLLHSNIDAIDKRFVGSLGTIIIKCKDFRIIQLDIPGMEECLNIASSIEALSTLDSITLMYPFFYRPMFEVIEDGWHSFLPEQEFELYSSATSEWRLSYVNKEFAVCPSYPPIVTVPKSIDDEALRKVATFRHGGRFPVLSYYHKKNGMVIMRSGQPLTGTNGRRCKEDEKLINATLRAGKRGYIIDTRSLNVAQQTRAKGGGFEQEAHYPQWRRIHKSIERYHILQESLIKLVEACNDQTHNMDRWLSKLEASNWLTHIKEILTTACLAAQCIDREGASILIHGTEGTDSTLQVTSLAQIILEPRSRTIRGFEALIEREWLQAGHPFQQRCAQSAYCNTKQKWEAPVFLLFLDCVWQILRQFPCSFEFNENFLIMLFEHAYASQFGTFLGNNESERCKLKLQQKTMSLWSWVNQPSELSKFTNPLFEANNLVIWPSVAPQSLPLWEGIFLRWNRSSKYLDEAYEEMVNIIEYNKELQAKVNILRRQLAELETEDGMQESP
UniProt P82909: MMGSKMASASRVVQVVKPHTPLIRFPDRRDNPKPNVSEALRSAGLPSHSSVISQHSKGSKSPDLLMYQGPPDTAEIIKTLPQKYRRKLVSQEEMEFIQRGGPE
UniProt P00156: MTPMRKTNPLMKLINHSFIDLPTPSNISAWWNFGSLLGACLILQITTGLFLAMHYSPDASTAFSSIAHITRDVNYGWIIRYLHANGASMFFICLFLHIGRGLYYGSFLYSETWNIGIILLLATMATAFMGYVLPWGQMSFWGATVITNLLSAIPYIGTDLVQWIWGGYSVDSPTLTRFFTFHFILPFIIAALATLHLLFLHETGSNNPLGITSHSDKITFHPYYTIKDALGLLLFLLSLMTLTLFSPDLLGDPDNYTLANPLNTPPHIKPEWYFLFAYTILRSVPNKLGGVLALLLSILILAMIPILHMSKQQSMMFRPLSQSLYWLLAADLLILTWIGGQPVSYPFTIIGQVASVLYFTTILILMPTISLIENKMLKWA
UniProt Q13615: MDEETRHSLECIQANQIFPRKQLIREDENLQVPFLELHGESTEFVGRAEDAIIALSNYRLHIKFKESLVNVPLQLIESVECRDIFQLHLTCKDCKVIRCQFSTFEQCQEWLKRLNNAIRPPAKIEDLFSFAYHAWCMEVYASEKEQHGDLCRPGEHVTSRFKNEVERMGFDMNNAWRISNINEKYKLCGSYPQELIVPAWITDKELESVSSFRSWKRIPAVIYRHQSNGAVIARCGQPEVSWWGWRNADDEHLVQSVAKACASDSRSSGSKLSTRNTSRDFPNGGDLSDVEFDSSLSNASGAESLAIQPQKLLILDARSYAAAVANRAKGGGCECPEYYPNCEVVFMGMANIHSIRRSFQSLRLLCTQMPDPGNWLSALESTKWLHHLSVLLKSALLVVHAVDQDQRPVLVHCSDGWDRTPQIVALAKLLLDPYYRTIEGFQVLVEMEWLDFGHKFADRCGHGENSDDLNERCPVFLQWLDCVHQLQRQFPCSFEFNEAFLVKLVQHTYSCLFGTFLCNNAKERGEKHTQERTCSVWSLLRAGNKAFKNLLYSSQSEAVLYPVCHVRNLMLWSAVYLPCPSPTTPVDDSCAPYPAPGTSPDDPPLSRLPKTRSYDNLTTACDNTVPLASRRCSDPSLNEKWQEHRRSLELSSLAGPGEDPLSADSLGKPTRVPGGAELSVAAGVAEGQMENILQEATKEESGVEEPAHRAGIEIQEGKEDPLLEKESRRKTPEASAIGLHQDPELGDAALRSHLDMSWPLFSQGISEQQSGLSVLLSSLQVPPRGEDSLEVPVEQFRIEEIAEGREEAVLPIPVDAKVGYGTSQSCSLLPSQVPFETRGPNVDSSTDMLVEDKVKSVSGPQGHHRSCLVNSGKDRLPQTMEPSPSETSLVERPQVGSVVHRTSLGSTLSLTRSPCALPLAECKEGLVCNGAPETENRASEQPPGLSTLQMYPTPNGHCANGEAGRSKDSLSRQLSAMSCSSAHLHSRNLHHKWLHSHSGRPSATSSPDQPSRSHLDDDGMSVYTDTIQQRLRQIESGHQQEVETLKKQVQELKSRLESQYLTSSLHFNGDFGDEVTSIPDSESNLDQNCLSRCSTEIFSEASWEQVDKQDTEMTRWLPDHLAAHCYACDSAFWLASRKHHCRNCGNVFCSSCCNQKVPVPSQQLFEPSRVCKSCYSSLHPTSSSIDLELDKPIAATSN
UniProt Q15800: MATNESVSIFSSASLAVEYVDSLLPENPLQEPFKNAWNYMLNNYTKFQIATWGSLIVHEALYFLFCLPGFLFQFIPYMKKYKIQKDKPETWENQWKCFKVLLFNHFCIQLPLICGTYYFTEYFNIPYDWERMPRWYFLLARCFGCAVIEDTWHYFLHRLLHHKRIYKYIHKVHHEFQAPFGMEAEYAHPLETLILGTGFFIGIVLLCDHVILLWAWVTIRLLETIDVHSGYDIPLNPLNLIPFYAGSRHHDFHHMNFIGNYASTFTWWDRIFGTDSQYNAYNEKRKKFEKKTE
UniProt Q99417: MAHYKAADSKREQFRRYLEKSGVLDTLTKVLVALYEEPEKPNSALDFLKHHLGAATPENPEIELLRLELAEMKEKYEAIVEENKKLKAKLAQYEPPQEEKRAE
UniProt Q6P444: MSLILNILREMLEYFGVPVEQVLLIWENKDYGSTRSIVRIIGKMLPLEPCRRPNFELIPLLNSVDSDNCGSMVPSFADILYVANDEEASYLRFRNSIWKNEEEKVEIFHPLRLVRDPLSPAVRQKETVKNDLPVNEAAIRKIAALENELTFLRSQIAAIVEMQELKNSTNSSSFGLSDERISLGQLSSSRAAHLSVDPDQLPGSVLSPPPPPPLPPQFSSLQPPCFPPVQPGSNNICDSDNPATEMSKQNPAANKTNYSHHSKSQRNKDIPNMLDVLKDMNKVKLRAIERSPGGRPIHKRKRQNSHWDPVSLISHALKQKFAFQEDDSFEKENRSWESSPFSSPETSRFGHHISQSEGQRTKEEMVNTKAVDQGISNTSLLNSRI
UniProt P58546, whole entry, looked up: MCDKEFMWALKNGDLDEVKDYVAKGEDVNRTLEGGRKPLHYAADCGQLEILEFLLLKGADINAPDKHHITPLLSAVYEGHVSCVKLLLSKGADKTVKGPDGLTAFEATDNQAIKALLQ
UniProt Q13496: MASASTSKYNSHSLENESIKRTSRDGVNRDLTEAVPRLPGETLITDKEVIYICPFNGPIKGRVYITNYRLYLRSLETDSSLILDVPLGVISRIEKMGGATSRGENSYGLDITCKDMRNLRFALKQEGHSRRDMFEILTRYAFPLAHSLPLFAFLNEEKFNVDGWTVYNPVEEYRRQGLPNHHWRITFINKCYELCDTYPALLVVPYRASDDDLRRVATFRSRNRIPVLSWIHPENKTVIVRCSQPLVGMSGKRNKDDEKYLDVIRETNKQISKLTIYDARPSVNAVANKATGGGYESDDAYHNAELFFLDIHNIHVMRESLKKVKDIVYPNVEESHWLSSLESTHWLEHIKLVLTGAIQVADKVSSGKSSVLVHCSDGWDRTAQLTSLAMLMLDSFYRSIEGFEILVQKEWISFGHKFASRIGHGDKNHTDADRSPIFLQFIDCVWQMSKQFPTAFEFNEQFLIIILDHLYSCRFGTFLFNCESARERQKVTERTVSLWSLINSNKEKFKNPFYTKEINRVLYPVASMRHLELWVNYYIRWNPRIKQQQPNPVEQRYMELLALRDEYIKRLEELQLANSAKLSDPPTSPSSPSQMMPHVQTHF
UniProt Q86UE4: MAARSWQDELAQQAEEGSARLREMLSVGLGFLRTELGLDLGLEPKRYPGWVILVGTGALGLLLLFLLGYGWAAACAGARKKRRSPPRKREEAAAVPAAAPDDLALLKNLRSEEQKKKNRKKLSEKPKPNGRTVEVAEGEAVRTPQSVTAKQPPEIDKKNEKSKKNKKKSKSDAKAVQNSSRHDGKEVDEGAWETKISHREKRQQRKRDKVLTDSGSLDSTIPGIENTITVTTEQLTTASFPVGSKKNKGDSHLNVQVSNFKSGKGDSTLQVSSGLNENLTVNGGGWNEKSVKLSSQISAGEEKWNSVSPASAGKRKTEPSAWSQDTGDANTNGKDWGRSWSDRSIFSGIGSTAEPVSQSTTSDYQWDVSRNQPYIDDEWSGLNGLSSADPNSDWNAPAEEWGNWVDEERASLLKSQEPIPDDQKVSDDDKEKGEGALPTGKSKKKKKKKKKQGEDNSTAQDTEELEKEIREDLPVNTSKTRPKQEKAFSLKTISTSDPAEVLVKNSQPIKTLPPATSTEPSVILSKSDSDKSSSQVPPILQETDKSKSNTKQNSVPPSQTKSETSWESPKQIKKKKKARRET

What was measured:
Test in all cases: log2 fold change, soluble protein after heating vs DMSO (PISA); higher = thermal stabilisation; K562 cells, 10 uM, 30 min; active = over 0.2 and 3.5 SD of the protein, either way, in both replicates (recomputed)
IRAK-1-4 Inhibitor I = compound: C1COCCN1CCN2C3=CC=CC=C3N=C2NC(=O)C4=CC(=CC=C4)[N+](=O)[O-] [IRAK-1-4 Inhibitor I]
Method in brief: (§1)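 K562 cells at 2×10^6 cells/mL were treated with 10 μM compound for 30 min. Aliquots were heated for 3 min across 48°C-58°C, pooled, and extracted in PBS with 0.5% NP-40 at 4°C; soluble protein was the supernatant after 21,000xg for 90 min. Soluble protein was quantified by TMTpro 16plex LC-MS/MS with channel sums equalised, and reported as log2 fold change in thermal stability against DMSO controls, with values from duplicates.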

ibrutinib = compound: C=CC(=O)N1CCC[C@@H](n2nc(-c3ccc(Oc4ccccc4)cc3)c3c(N)ncnc32)C1 [ibrutinib]
Method in brief: as §1

[1] = compound: CC(=O)c1cnc2ccc(-c3cc(Cl)c(O)c(Cl)c3)nc2c1N[C@H]1CC[C@H](CN(C)C)CC1
Method in brief: as §1

ralimetinib = compound: CC(C)(C)Cn1c(N)nc2ccc(-c3[nH]c(C(C)(C)C)nc3-c3ccc(F)cc3)nc21 [ralimetinib]
Method in brief: as §1

[2] = compound: CC(C)(O)CC(=O)NCCn1ccc2ncnc(Nc3ccc(Oc4cccc(C(F)(F)F)c4)c(Cl)c3)c21
Method in brief: as §1

[3] = compound: CC(C)C1=C2N=C(C=C(N2N=C1)NCC3=CC=CC=C3)NCCCCCCN
Method in brief: as §1

[4] = compound: CC(C)C[C@@H](C=O)NC(=O)[C@H](CC(C)C)NC(=O)[C@H](CC(C)C)NC(=O)OCc1ccccc1
Method in brief: as §1

pinometostat = compound: CC(C)N(C[C@H]1O[C@@H](n2cnc3c(N)ncnc32)[C@H](O)[C@@H]1O)[C@H]1C[C@@H](CCc2nc3cc(C(C)(C)C)ccc3[nH]2)C1 [pinometostat]
Method in brief: as §1

[5] = compound: CC1=C(C(CC(=O)N1)C2=CC=C(C=C2)C(F)(F)F)C(=O)NC3=C(C=C4C(=C3)C=NN4)F
Method in brief: as §1

[6] = compound: CC1=C(C2=C(C=C1)C(=O)C3=CC=CC=C3N2CCCN)C
Method in brief: as §1

Measured: log2 fold change

MSL1 (UniProt Q68DK7)
inactive: IRAK-1-4 Inhibitor I 0.007 | ibrutinib 0.01 | [1] -0.039 | ralimetinib 0.184 | [2] -0.086 | [3] 0.071 | [4] -0.005 | pinometostat -0.1

MRPS11 (UniProt P82912)
inactive: IRAK-1-4 Inhibitor I -0.085 | ibrutinib 0.03 | [1] -0.037 | ralimetinib -0.033 | [2] -0.049 | [3] -0.088 | [4] -0.041 | pinometostat 0.041 | [5] 0.036 | [6] -0.071

MTCH1 (UniProt Q9NZJ7)
inactive: IRAK-1-4 Inhibitor I -0.003 | ibrutinib -0.016 | [1] -0.014 | ralimetinib -0.036 | [2] 0.168 | [3] -0.004 | [4] 0.019 | pinometostat -0.018 | [5] -0.044 | [6] 0.026

2 entries drawn at random from those above:
MSL1 (UniProt Q68DK7)
inactive: IRAK-1-4 Inhibitor I 0.007 | ibrutinib 0.01 | [1] -0.039 | ralimetinib 0.184 | [2] -0.086 | [3] 0.071 | [4] -0.005 | pinometostat -0.1

MRPS11 (UniProt P82912)
inactive: IRAK-1-4 Inhibitor I -0.085 | ibrutinib 0.03 | [1] -0.037 | ralimetinib -0.033 | [2] -0.049 | [3] -0.088 | [4] -0.041 | pinometostat 0.041 | [5] 0.036 | [6] -0.071

(listing goes on)

MRPS18A isoform 2 (UniProt Q9NVS2)
inactive: IRAK-1-4 Inhibitor I -0.066 | ibrutinib -0.021 | [1] 0.041 | ralimetinib 0.064 | [2] 0.024 | [3] -0.021 | [4] 0.02 | pinometostat 0.144 | [5] -0.051 | [6] -0.064

MYO19 (UniProt Q96H55)
inactive: IRAK-1-4 Inhibitor I 0.014 | ibrutinib -0.11 | [1] 0.168 | ralimetinib 0.115 | [2] 0.079 | [3] -0.06 | [4] 0.176 | pinometostat 0.014

MRPS23 (UniProt Q9Y3D9)
inactive: IRAK-1-4 Inhibitor I -0.043 | ibrutinib 0.068 | [1] -0.007 | ralimetinib -0.005 | [2] -0.029 | [3] -0.12 | [4] 0.03 | pinometostat 0.032 | [5] -0.041 | [6] -0.115

MTHFR isoform 2 (UniProt P42898)
inactive: IRAK-1-4 Inhibitor I 0.046 | ibrutinib 0.012 | [1] 0.018 | ralimetinib 0 | [2] -0.032 | [3] 0.003 | [4] -0.017 | pinometostat -0.029 | [5] -0.018 | [6] 0.122

MYL6 isoform 2 (UniProt P60660)
inactive: IRAK-1-4 Inhibitor I 0.023 | ibrutinib 0.013 | [1] 0.008 | ralimetinib -0.013 | [2] -0.021 | [3] -0.061 | [4] 0.002 | pinometostat -0.045 | [5] 0.018 | [6] -0.016

MTREX (UniProt P42285)
inactive: IRAK-1-4 Inhibitor I 0.016 | ibrutinib -0.03 | [1] -0.016 | ralimetinib -0.04 | [2] -0.026 | [3] -0.044 | [4] 0.008 | pinometostat -0.013 | [5] -0.024 | [6] 0.073

MRPS30 (UniProt Q9NP92)
inactive: IRAK-1-4 Inhibitor I -0.054 | ibrutinib 0.022 | [1] 0.087 | ralimetinib 0.083 | [2] 0.029 | [3] 0.046 | [4] -0.038 | pinometostat 0.167 | [5] 0.027 | [6] -0.078

MTRR isoform 1 (UniProt Q9UBK8)
inactive: IRAK-1-4 Inhibitor I -0.023 | ibrutinib 0.021 | [1] -0.044 | ralimetinib 0.074 | [2] -0.077 | [3] 0.075 | [4] 0.046 | pinometostat -0.026 | [5] 0.009 | [6] 0.131

MRPS21 (UniProt P82921)
inactive: IRAK-1-4 Inhibitor I -0.143 | ibrutinib 0.029 | [1] 0.172 | ralimetinib -0.038 | [2] -0.069 | [3] 0.063 | [4] 0.063 | pinometostat 0.052 | [6] -0.207

MTMR9 (UniProt Q96QG7)
inactive: IRAK-1-4 Inhibitor I -0.039 | ibrutinib 0.037 | [1] -0.081 | ralimetinib 0.007 | [2] -0.119 | [3] -0.068 | [4] -0.016 | pinometostat 0.014 | [5] -0.173 | [6] 0.004

MTMR14 (UniProt Q8NCE2)
inactive: IRAK-1-4 Inhibitor I 0.027 | ibrutinib -0.069 | [1] -0.015 | ralimetinib 0.004 | [2] 0.028 | [3] -0.04 | [4] -0.004 | pinometostat -0.041 | [6] -0.029

MRPS36 (UniProt P82909)
inactive: IRAK-1-4 Inhibitor I 0.041 | ibrutinib -0.021 | [1] -0.026 | ralimetinib -0.064 | [2] 0.087 | [3] 0.086 | [4] 0.104 | pinometostat 0.009 | [5] 0.057 | [6] -0.055

MTR (UniProt Q99707)
inactive: IRAK-1-4 Inhibitor I -0.065 | ibrutinib -0.022 | [1] 0.003 | ralimetinib 0.115 | [2] -0.014 | [3] -0.233 | [4] 0.131 | pinometostat 0.185 | [5] -0.083 | [6] -0.014

MT-CYB (UniProt P00156)
inactive: IRAK-1-4 Inhibitor I -0.011 | ibrutinib -0.013 | [1] -0.16 | ralimetinib -0.143 | [2] -0.026 | [3] 0.038 | [4] 0.009 | pinometostat -0.077 | [5] -0.131 | [6] 0.091

MTMR3 (UniProt Q13615)
inactive: IRAK-1-4 Inhibitor I 0.005 | ibrutinib -0.204 | [1] -0.056 | ralimetinib 0.001 | [2] -0.069 | [3] 0.019 | [4] 0.033 | pinometostat -0.019 | [5] 0.016 | [6] 0.016

MTMR2 (UniProt Q13614)
inactive: IRAK-1-4 Inhibitor I -0.03 | ibrutinib 0.001 | [1] 0 | ralimetinib -0.091 | [2] 0.048 | [3] 0.007 | [4] 0.057 | pinometostat -0.037 | [5] 0.011 | [6] -0.002

MSMO1 (UniProt Q15800)
inactive: IRAK-1-4 Inhibitor I 0.066 | ibrutinib 0.036 | [1] 0.004 | ralimetinib 0.031 | [2] -0.053 | [3] 0.014 | [4] -0.009 | pinometostat 0.038 | [5] 0.055 | [6] -0.04

MYCBP (UniProt Q99417)
inactive: IRAK-1-4 Inhibitor I 0.035 | ibrutinib -0.021 | [1] -0.014 | ralimetinib -0.166 | [2] 0.012 | [3] 0.053 | [4] 0.06 | pinometostat -0.041 | [5] 0.019 | [6] 0.049

MRPS27 isoform 2 (UniProt Q92552)
inactive: IRAK-1-4 Inhibitor I -0.116 | ibrutinib 0.019 | [1] -0.002 | ralimetinib 0.069 | [2] -0.104 | [3] -0.161 | [4] -0.011 | pinometostat -0.022 | [6] -0.06

MRPS34 (UniProt P82930)
inactive: IRAK-1-4 Inhibitor I -0.141 | ibrutinib -0.007 | [1] -0.024 | ralimetinib -0.033 | [2] -0.091 | [3] -0.129 | [4] -0.022 | pinometostat 0.046 | [5] -0.07 | [6] -0.041

MYO1D (UniProt O94832)
inactive: IRAK-1-4 Inhibitor I 0.034 | ibrutinib 0.09 | [1] 0.006 | ralimetinib 0.169 | [2] 0 | [3] -0.192 | [4] 0.161 | pinometostat 0.206 | [5] -0.029 | [6] -0.153

MYL6B (UniProt P14649)
inactive: IRAK-1-4 Inhibitor I 0.019 | ibrutinib 0.016 | [1] 0.008 | ralimetinib -0.015 | [2] -0.012 | [3] 0.003 | [4] 0.029 | pinometostat -0.012 | [5] 0.013 | [6] -0.016

MTFR2 (UniProt Q6P444)
inactive: IRAK-1-4 Inhibitor I 0.018 | ibrutinib 0.012 | [1] -0.076 | ralimetinib 0.024 | [2] -0.137 | [3] -0.048 | [4] 0.035 | pinometostat -0.046 | [5] 0.064 | [6] -0.055

MTPN (UniProt P58546)
inactive: IRAK-1-4 Inhibitor I -0.004 | ibrutinib -0.069 | [1] 0.009 | ralimetinib -0.007 | [2] -0.058 | [3] 0.068 | [4] -0.011 | pinometostat -0.092 | [5] 0.01 | [6] 0.275

MTM1 (UniProt Q13496)
inactive: IRAK-1-4 Inhibitor I -0.023 | ibrutinib 0.029 | [1] -0.02 | ralimetinib -0.032 | [2] 0.034 | [3] 0.019 | [4] -0.03 | pinometostat 0.007 | [5] -0.014 | [6] 0.015

MRPS22 (UniProt P82650)
inactive: IRAK-1-4 Inhibitor I -0.027 | ibrutinib 0.051 | [1] -0.02 | ralimetinib 0.017 | [2] -0.102 | [3] -0.11 | [4] 0.04 | pinometostat 0.007 | [6] -0.175

MTDH (UniProt Q86UE4)
inactive: IRAK-1-4 Inhibitor I -0.132 | ibrutinib 0.023 | [1] 0.12 | ralimetinib 0.108 | [2] 0.084 | [3] 0.038 | [4] 0.073 | pinometostat 0.309 | [5] 0.02 | [6] -0.111
